Test results from PubChem BioAssay AID1347076 (National Center for Advancing Translational Sciences (NCATS), 2019).
Among all 400,000 compounds or so, about 13,000 (3.2%) were called active. This list was built around the results that the source calls inconclusive (neither active nor inactive); the mix of calls is not that of the screen. Calls come from the whole dose curve; as a rule, active = well fitted cell-killing curve with a large enough effect; inconclusive = small, poorly fitted or top-dose-only effect, or effect the other way; inactive = flat fitted curve, though single readings scatter. Potencies of inconclusive entries are doubtful fits and often do not repeat.
% is set by controls: 0 for no effect and ±100 for the full control effect; potency is the fitted concentration of half-maximal effect.

Experiment: qHTS assay for MDR1-selective chemotherapeutics: Primary screen using the drug-selected MDR subline cells KB-V1; note: nearly all actives have a fitted effect of over 60% in size
Conditions: KB-V1 MDR cells viability, CellTiter-Glo, 72 h; activity change, negative = cytotoxicity: at 46.1 µM (top of the series)
Method in brief: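 KB-V1 MDR subline cells in DMEM (phenol-red free, 10% FBS) exposed to compounds in qHTS concentration series for 72 h at 37 degrees C. Viability read by CellTiter-Glo luminescence; concentration-effect curves fitted after normalization and correction.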
In the case of `CC(=NNC(=S)Nc1cccc(Cl)c1)c1ccccn1`, the Potency is reported as inconclusive: 5.8 µM [cytotoxic, partial curve, poor fit].
In the case of `Cc1ccc(SCCSc2nc(N)cc(=O)[nH]2)cc1`, the Potency is reported as active: 8.2 µM.
With `O=C(N/N=C/c1cc2cc3c(cc2nc1Cl)OCCO3)c1ccccc1O` the Potency was inconclusive: 16.4 µM [cytotoxic, single point].
In the case of `O=c1c2c(-c3ccc(Cl)cc3)csc2nc2n1CCC2`, the Potency is reported as active: 18.4 µM.
In the case of `Cc1cc(C)cc(N2CC(C(=O)NC3CCCCC3)CC2=O)c1` (configuration not stated), the Potency is reported as inconclusive: 18.4 µM [cytotoxic, partial curve, poor fit].
In the case of `CCOC(=O)C1CCCN(C(=O)COc2ccc(S(=O)(=O)N3CCOCC3)cc2)C1` (configuration not stated), the Potency is reported as inconclusive: 18.4 µM [rising, single point].
In the case of `COc1ccc(CN2C(=O)COc3ccccc3C2c2nc3ccccc3[nH]2)cc1` (configuration not stated), the “activity change, negative = cytotoxicity” value is reported as inactive: 0.415%.
For `CCNC(=S)N/N=C/c1cccc(OCc2c(F)cccc2Cl)c1`, the Potency was active: 20.6 µM.
With `CCC(=C(c1ccc(OC)cc1)c1ccc(OC)cc1)c1cn(CC(O)CN2CCN(C)CC2)c2ccccc12` (configuration not stated) the Potency was inconclusive: 23.1 µM [cytotoxic, single point].
In the case of `CC(=O)N/C(=N\c1nc(C)cc(C)n1)Nc1ccc2ccccc2c1`, the Potency is reported as inconclusive: 7.31 µM [cytotoxic, partial curve].
In the case of `C/C(=N\NC(=O)C1=NNC(=O)C1C)c1cccs1` (configuration not stated), the Potency is reported as inconclusive: 16.4 µM [cytotoxic, single point].
In the case of `CC(=O)Nc1nc(-c2ccc3c(c2)CCN3C(=O)C2CC2)c(C)s1`, the Potency is reported as active: 14.6 µM.
In the case of `Cc1cc(=O)[nH]c(SCC(=O)N2CCN(C(c3ccccc3)c3ccccc3)CC2)n1`, the “activity change, negative = cytotoxicity” value is reported as inactive: -0.976%.
For `CCc1cc(=O)oc2cc(C)cc(OCC(=O)NCC(O)c3ccccc3)c12` (configuration not stated), the “activity change, negative = cytotoxicity” value was inactive: -13.7%.
With `N#CCSc1nc2ccc(N3CCOCC3)cc2c(=O)n1CCc1ccccc1` the Potency was active: 3.26 µM.
For `CC(C)C(=O)N1CCN(c2c(Cl)cccc2[N+](=O)[O-])CC1`, the Potency was active: 14.6 µM.
In the case of `COc1ccc(CC(=O)N(c2ccccc2)c2nc(C)cs2)cc1`, the Potency is reported as active: 16.4 µM.
With `Cc1ccc(NC(=O)c2ccccc2-c2ccccc2C(=O)O)cc1C` the Potency was inconclusive: 32.6 µM [rising, single point].
For `Cc1ccc(C2=NN(C(=O)CSc3nccn3C)C(c3ccco3)C2)cc1` (configuration not stated), the Potency was active: 9.2 µM.
For `CC(C)(C)C(=O)NNC(=O)COc1ccc2ccccc2c1Br`, the Potency was inconclusive: 18.4 µM [cytotoxic, single point].
For `O=[N+]([O-])c1ccc2[nH]c(=S)sc2c1`, the Potency was active: 11.6 µM.
For `Cc1ccccc1NC(=O)c1cnn(-c2ccccc2)c1C`, the “activity change, negative = cytotoxicity” value was inactive: -20.8%.
In the case of `CCOc1ccc(CN2CCN(Cc3cnc(-c4ccccc4)s3)CC2CCO)cc1` (configuration not stated), the Potency is reported as inconclusive: 5.8 µM [cytotoxic, partial curve, poor fit].
In the case of `O=S(=O)(Nc1nc2ccccc2nc1Cl)c1ccc(Cl)cc1`, the Potency is reported as inconclusive: 18.4 µM [cytotoxic, single point].
With `CN1CCN(C(=S)c2ccc(-c3cc(Cl)ccc3Cl)o2)CC1` the “activity change, negative = cytotoxicity” value was inactive: -24.3%.
For `O=C(CC12CC3CC(C1)CC(CC(=O)N1CCCC1)(C3)C2)N1CCCC1`, the Potency was active: 14.6 µM.
For `NCCOc1ccc(C23CC4CC(CC(C4)C2)C3)cc1`, the Potency was inconclusive: 25.9 µM [cytotoxic, single point].
With `Cc1cc(C)c(NS(=O)(=O)c2ccc3c(c2)CC(C)N3C(=O)C2CCC2)c(C)c1` (configuration not stated) the Potency was inconclusive: 5.8 µM [cytotoxic, partial curve].
In the case of `CN(Cc1ccccc1)C(=O)c1cccc(NC(=O)Cc2ccc(NC(=O)C3CCCN(C(=O)c4ccccc4)C3)cc2)c1` (configuration not stated), the “activity change, negative = cytotoxicity” value is reported as inactive: 0%.
In the case of `COCCNC(=O)C(c1ccc(Cl)cc1)N(CCOC)C(=O)CCC(=O)Nc1ccccn1` (configuration not stated), the “activity change, negative = cytotoxicity” value is reported as inactive: 6.83%.
With `Cc1ccc(C)c(SCC(=O)Nc2ccc(C)c(S(=O)(=O)N3CCOCC3)c2)c1` the Potency was inconclusive: 29.1 µM [cytotoxic, single point].
In the case of `Cc1nn(-c2ccccc2)c2sc(C(=O)N(Cc3ccco3)C(C)C(=O)NC(C)(C)C)cc12` (configuration not stated), the Potency is reported as inconclusive: 32.6 µM [cytotoxic, single point].
For `CC(C)Cc1nnc(NC(=O)CCC(=O)NC2CC2)s1`, the Potency was inconclusive: 14.6 µM [rising, single point].
With `CCOC(=O)C1C(=O)C=C(/C=C/c2ccccc2)CC1c1ccc(Cl)cc1` (configuration not stated) the Potency was active: 16.4 µM.
With `Cc1ccc(CNCC(O)(c2ccccc2)c2ccc(Cl)cc2)cc1` (configuration not stated) the Potency was inconclusive: 7.31 µM [cytotoxic, partial curve].
In the case of `Cc1ccc(Nc2ccc3cc(S(=O)(=O)N4CCCCC4)ccc3n2)cc1F`, the Potency is reported as inconclusive: 18.4 µM [cytotoxic, single point].
For `Cc1ccc(CC(=O)CCc2ccccc2)cc1`, the Potency was inconclusive: 14.6 µM [cytotoxic, partial curve].
In the case of `Cc1sc2ncnc(SCC(=O)Nc3ncccc3O)c2c1C`, the Potency is reported as inconclusive: 0.291 µM [rising, full curve].
In the case of `O=C(NCCCc1ccccc1)C(=O)NCC1OCCN1S(=O)(=O)c1cc(F)ccc1F` (configuration not stated), the Potency is reported as inconclusive: 10.3 µM [cytotoxic, partial curve, poor fit].
For `CCC(=O)c1ccc(OCC(=O)N2CCN(C(=O)c3ccccc3)CC2)cc1`, the Potency was inconclusive: 29.1 µM [cytotoxic, single point].
In the case of `COc1cc(C)c(NC(=O)COc2ccc3c(c2)OCO3)cc1C`, the Potency is reported as inconclusive: 29.1 µM [cytotoxic, single point].
In the case of `CC1(C)Cc2nc3oc4c(=O)n(CC(=O)Nc5cccc(Cl)c5)cnc4c3cc2CO1`, the “activity change, negative = cytotoxicity” value is reported as inactive: 18%.
For `NC(=O)c1ccc(CN2CCc3ccccc3C2)cc1`, the Potency was inconclusive: 18.4 µM [rising, single point].
For `CCOc1ccc(NC(=O)CN2C(=O)NC(C)(c3ccc4c(c3)OCCCO4)C2=O)cc1OCC` (configuration not stated), the Potency was inconclusive: 29.1 µM [rising, single point].
In the case of `CC(=O)c1ccc(NC(=O)c2cn(-c3ccccc3)nc2-c2ccc(Br)cc2)cc1`, the Potency is reported as inconclusive: 23.1 µM [rising, single point].
In the case of `CC1CCCN(S(=O)(=O)c2ccc(C(=O)Nc3nnc(-c4ccccn4)o3)cc2)C1` (configuration not stated), the Potency is reported as inconclusive: 25.9 µM [cytotoxic, single point].
With `Cc1cccc(N/N=C(\C#N)S(=O)(=O)C(C)(C)C)c1` the “activity change, negative = cytotoxicity” value was inactive: -21.1%.
With `CN(C)S(=O)(=O)c1ccc(Cl)c(NC(=O)CNC2(C)CCS(=O)(=O)C2)c1` (configuration not stated) the Potency was inconclusive: 20.6 µM [rising, single point].
In the case of `CCCOc1ccc([N+](=O)[O-])cc1C1NC(=S)NC(c2ccccc2)=C1C(=O)OCC` (configuration not stated), the “activity change, negative = cytotoxicity” value is reported as inactive: -7.16%.
In the case of `Cc1cccc(C(=O)NC(C(=O)Nc2nc(-c3ccccn3)cs2)C(C)C)c1` (configuration not stated), the Potency is reported as inconclusive: 8.2 µM [cytotoxic, partial curve].
With `COC(=O)CCCC[C@@H]1O[C@H](CCc2ccccc2)Cc2[nH]c(=S)[nH]c(=O)c21` the “activity change, negative = cytotoxicity” value was inactive: 27.5%.
For `CCOC(=O)N1CCc2c(sc(NC(=O)CCS(=O)(=O)c3ccccc3)c2C(N)=O)C1`, the “activity change, negative = cytotoxicity” value was inactive: 23.5%.
For `CCOc1ccc2nc(SCc3ccc(OC)cc3)sc2c1`, the Potency was inconclusive: 18.4 µM [cytotoxic, partial curve].
In the case of `O=C(Nc1cccc(S(=O)(=O)N2CCOCC2)c1)c1cn(-c2ccccc2)nc1-c1ccccc1`, the Potency is reported as inconclusive: 5.17 µM [cytotoxic, partial curve].
In the case of `Cc1ccc(/C=N/Nc2ccc(F)cc2F)s1`, the “activity change, negative = cytotoxicity” value is reported as inactive: 2.14%.
For `COc1ccc(/C=N\NC(=O)c2cc3c(ccc4ccccc43)o2)cc1O`, the “activity change, negative = cytotoxicity” value was inactive: -26.6%.
With `Cc1ccc(N2CCN(S(=O)(=O)N3CCCCC3)CC2)cc1Cl` the Potency was inconclusive: 8.2 µM [cytotoxic, partial curve].
With `Cc1sc2ncn(CC(=O)NCC(=O)N(C)C3CCCCC3)c(=O)c2c1C` the Potency was active: 23.1 µM.
With `COCCNc1nc(-c2ccc(OC)cc2)c(-c2ccc(OC)cc2)s1` the “activity change, negative = cytotoxicity” value was inactive: -24%.
For `C(=N\Nc1nc2ccccc2[nH]1)/c1cccc2cccnc12`, the Potency was inconclusive: 0.92 µM [cytotoxic, full curve].
For `CCNc1nc(C)c2cc(Br)c(=O)n(CC)c2n1`, the Potency was active: 6.51 µM.
For `Cc1ccc(-n2ncc(C#N)c2/N=C/N2CCCCCC2)cc1`, the “activity change, negative = cytotoxicity” value was inactive: -26.6%.
With `Cc1cc(C)n(-c2ccc3cccc(NS(C)(=O)=O)c3n2)n1` the Potency was inconclusive: 2.59 µM [cytotoxic, full curve, poor fit].
In the case of `O=C(CCc1ccccc1)NC(=S)Nc1ccccc1Br`, the “activity change, negative = cytotoxicity” value is reported as inactive: 11.8%.
For `Cc1nn(C)c(C(=O)N2CCN(C(=O)c3ccco3)CC2)c1Br`, the Potency was inconclusive: 11.6 µM [cytotoxic, partial curve].
In the case of `Cc1cc(C)n(C(C)Sc2ccccc2)n1` (configuration not stated), the “activity change, negative = cytotoxicity” value is reported as inactive: -9.44%.
In the case of `CCCCn1c(=NC(=O)c2cccnc2)c(C#N)cc2c(=O)n3cccc(C)c3nc21`, the Potency is reported as inconclusive: 0.92 µM [cytotoxic, full curve].
With `COc1ccc(-n2cnc3scc(-c4ccccc4)c3c2=O)cc1` the Potency was inconclusive: 29.1 µM [cytotoxic, single point].
For `CC1Cc2cc(/C(O)=C3/C(=O)C(=O)N(CCCn4ccnc4)C3c3ccco3)ccc2O1` (configuration not stated), the Potency was inconclusive: 16.4 µM [rising, single point].
With `O=C(NCCc1ccc(F)cc1)c1cc([N+](=O)[O-])ccc1N1CCOCC1` the Potency was inconclusive: 8.2 µM [cytotoxic, partial curve, poor fit].
With `CCOC(=O)c1c(C)oc2nc(C)nc(N3CCN(c4cc(Cl)ccc4C)CC3)c12` the Potency was inconclusive: 9.2 µM [cytotoxic, partial curve].
With `CCOc1ccccc1NC(=O)CSc1nc(=O)n(CCN2CCOCC2)c2c1CCCC2` the Potency was inconclusive: 23.1 µM [cytotoxic, partial curve, poor fit].
